In paper doi:10.1101/2023.12.12.570754:
Results are given in words; binding and its absence hold for the method and conditions named. Binding seen in cells or lysates may run through a third protein. Some binding calls cover weakened binding; strength is not graded here. For some of these results: Where a sequence is shown, tags or fusion partners need not be part of it.

Amino acid sequences for entries named in this document (tags omitted).
UniProt P27641: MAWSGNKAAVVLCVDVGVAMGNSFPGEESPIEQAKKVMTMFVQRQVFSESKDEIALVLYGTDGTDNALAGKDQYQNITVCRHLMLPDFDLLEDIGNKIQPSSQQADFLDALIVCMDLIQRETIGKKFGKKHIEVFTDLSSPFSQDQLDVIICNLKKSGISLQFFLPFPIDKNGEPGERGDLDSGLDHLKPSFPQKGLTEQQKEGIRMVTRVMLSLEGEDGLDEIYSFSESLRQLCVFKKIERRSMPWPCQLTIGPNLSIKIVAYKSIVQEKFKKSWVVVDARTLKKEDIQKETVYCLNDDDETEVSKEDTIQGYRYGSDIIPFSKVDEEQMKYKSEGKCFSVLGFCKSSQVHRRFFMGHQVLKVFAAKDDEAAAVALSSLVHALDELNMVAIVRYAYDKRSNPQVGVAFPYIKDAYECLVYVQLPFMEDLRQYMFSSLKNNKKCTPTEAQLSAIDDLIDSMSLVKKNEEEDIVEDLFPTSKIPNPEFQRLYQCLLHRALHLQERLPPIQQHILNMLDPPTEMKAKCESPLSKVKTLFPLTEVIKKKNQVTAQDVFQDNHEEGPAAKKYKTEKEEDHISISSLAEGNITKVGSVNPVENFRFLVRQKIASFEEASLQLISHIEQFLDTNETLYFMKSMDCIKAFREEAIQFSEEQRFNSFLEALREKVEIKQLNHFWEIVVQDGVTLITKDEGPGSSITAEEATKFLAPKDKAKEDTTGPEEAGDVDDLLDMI
UniProt P23475: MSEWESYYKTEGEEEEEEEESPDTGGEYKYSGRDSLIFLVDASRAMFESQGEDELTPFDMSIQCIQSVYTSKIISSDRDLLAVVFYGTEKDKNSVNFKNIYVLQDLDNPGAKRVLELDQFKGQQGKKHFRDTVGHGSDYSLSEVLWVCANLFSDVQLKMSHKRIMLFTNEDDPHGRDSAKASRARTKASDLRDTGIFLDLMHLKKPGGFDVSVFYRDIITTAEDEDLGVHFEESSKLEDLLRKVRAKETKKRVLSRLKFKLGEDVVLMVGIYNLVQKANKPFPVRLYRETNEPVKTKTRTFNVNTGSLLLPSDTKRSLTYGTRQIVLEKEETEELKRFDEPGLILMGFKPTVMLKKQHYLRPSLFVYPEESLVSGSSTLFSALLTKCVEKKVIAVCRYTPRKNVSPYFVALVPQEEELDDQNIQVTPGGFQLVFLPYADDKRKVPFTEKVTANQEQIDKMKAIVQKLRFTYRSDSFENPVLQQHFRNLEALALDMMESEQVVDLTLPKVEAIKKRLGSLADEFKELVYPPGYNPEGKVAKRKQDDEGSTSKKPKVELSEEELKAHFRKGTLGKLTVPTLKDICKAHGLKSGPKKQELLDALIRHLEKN

Columns and labels:
[1] = target: T1, N-terminal GFP-tagged RAG2 C-terminal region (aa351-527) fusion protein (human) (UniProt P55895); assay: pull-down
T1 sequence: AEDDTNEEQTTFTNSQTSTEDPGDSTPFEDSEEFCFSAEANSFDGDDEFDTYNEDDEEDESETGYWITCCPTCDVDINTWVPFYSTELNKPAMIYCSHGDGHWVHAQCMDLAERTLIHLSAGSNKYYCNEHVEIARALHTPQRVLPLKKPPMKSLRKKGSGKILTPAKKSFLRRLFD

[2] = target: endogenous Ku80 (XRCC5) (mouse (endogenous in v-abl pro-B cells)) (UniProt P27641); assay: proximity ligation
[3] = target: T1, N-terminal GFP-tagged RAG2 C-terminal region (aa351-527) fusion protein (human); assay: proximity ligation

| binding [1] | binding [2] | binding [3] | Substance |
| --- | --- | --- | --- |
| binds | binds | – | endogenous Ku70 (XRCC6) (from UniProt P23475 1-608) |
| binds | – | binds | endogenous Ku80 (XRCC5) (from UniProt P27641 1-732) |
